# Experimental data taken from the supplement of paper PMC3334620.
# Over roughly 33,000 sequences, “E-score (-0.5 to 0.5)” has its median near -0.016; the highest 2% begin near 0.3. This is one part of the list.
# Biological target: T1, Yer184c (UniProt P39961)
# T1 sequence: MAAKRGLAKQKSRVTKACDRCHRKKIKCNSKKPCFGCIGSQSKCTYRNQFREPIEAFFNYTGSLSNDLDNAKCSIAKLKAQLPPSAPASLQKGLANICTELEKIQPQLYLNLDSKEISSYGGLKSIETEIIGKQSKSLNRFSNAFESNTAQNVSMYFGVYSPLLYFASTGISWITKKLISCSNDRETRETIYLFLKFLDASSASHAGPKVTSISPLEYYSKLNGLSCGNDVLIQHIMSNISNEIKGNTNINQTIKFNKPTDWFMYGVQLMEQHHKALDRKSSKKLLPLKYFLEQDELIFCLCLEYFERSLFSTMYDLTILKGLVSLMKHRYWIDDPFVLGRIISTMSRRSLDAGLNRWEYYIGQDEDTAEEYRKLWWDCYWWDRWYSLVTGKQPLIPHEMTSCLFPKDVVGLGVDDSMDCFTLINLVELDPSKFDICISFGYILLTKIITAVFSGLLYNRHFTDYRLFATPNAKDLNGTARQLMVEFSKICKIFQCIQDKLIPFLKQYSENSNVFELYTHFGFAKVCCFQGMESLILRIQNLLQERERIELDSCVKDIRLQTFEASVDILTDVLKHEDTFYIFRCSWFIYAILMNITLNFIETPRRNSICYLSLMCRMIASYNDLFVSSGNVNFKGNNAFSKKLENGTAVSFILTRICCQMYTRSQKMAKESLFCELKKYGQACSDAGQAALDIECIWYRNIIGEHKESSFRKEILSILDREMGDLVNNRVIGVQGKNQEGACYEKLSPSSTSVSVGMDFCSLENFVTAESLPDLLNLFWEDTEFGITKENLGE
# Test: PBM E-score (8-mer binding enrichment) (E-score (-0.5 to 0.5)); higher = stronger / more preferred TF binding
# Conditions: protein concentration: 100 nM; construct: GST-full length
# Method in brief: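 Yeast transcription factors, full-length or as DNA-binding domains, were expressed with a GST tag using PURExpress in vitro transcription/translation. At about 100-200 nM they were applied to universal all-10-mer Agilent arrays, double-stranded by primer extension on fresh or once-stripped slides. Fluorescent anti-GST detected bound protein, and masliner normalised the scans. E-scores for ungapped eight-base words, pooled with reverse complements, came from the Universal PBM Analysis Suite.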
row,Sequence,PBM E-score
1,CCGACTGC,-0.0462
2,ATCTGCAA,-0.211
3,ACTCAGCT,-0.137
4,ACTCTCGC,-0.169
5,AGATATGG,-0.157
6,AAAGCCAA,0.0154
7,CCTGTAAA,-0.0958
8,CCCTGAAA,-0.104
9,GATCGGGC,0.00638
10,CGCGAAGA,0.173
11,CCACGAGC,0.0934
12,ACTTTTAA,0.0588
13,AGTTTCCC,-0.0163
14,ATGGGTTA,-0.0129
15,GGCCCGAA,0.188
16,AGAGAGAT,0.0462
17,CCGCTTCA,0.0485
18,CAGACTTC,-0.17
19,GCAGACAA,0.0236
20,AGCACGCC,-0.0156
21,AGGAGGTA,-0.205
22,AGACCCAC,-0.14
23,GGTCCAAA,0.0253
24,ATTTTAGA,0.0124
25,CGTAGCCA,-0.16

row,Sequence,PBM E-score
1,ACGCACGC,0.181
2,CAGTGCAG,-0.152
3,CTAGGTGA,-0.263
4,GCGCTTGA,0.143
5,ACTGAAGG,-0.131
6,AAACCTGA,-0.166
7,TTGGACAA,0.0264
8,CGTACCAG,-0.0638
9,AGCCGTCA,0.164
10,ATGTACAT,0.0621
11,AGCCACGG,-0.0761
12,AACCATGG,0.0428
13,ATGGTAAT,0.124
14,AGATCGTA,-0.235
15,CTCAACAA,0.129
16,ATTCGAGG,-0.0108
17,GATCCTAA,-0.161
18,ATCTTTGG,-0.167
19,CCAGAGGG,-0.12
20,ATATTACA,0.225
21,AATATAAA,0.272
22,AGTCTAGC,-0.191
23,GACATCCC,-0.0741
24,CGGTTGGC,0.179
25,CTTGGTAA,0.0115

# 3 entries from above, bar-delimited:
row | Sequence | PBM E-score
5 | ACTGAAGG | -0.131
6 | AAACCTGA | -0.166
7 | TTGGACAA | 0.0264

# More results

row,Sequence,PBM E-score
1,GGCAGAAC,-0.147
2,GAATCGTC,0.0183
3,ACGTCACT,-0.0421
4,GATTTGGC,-0.187
5,CTCACTTC,-0.227
6,ATGCCCGA,-0.0802
7,AGCATAGA,0.0291
8,TAATATTA,0.381
9,ATCGCAAT,-0.0156
10,CCTCTCGC,-0.23
11,CCACATAA,0.0383
12,CGGCGCAA,0.178
13,AACAGTGT,-0.13
14,CGCGACAA,0.184
15,AGCCACAT,-0.0913
16,CCCATTTA,-0.0636
17,CACAAGCC,-0.0115
18,CGACGATC,0.157
19,CGAGGGCC,-0.00612
20,CAATAATC,0.0448
21,AAAGGAGG,-0.25
22,ATGATCAT,0.213
23,AGGCCGGA,0.247
24,GATACACC,0.16
25,ACGAACGT,-0.0467

row,Sequence,PBM E-score
1,CATAGACG,-0.0226
2,CGGAAACA,0.314
3,GAAGTCTC,-0.102
4,CGTCAAGA,-0.0776
5,TAGACCTA,-0.0542
6,CTTCTTTC,0.024
7,GCGCGAGA,0.0921
8,GCTTAAGC,-0.0896
9,CTCGGATA,0.305
10,TGAGGTAA,0.0222
11,ATGGGGTC,-0.125
12,CGTAAACC,-0.151
13,AGCTACTA,0.141
14,GACTTATC,-0.0267
15,CACTTGAC,-0.0817
16,CGGTCCAC,-0.0592
17,AAGAGCCG,0.277
18,GGGCACGA,-0.0329
19,GCCCCGGC,0.0665
20,ATTAGGCC,0.0212
21,ATCCCGAG,0.186
22,GAGGAATA,0.18
23,CATGTTAA,0.136
24,GCCGCGAC,-0.055
25,GGGCGACA,-0.17

row,Sequence,PBM E-score
1,AATCATCG,0.027
2,TAGAATGA,-0.059
3,ACCAGTCC,-0.285
4,GTACTACA,0.0564
5,ACTTTTTG,0.154
6,GCTATGCA,-0.107
7,ACATGCGG,-0.106
8,ATCGGAGG,0.00906
9,AGTGGAGG,-0.12
10,GTACAGGA,0.0861
11,ACTGTAAT,-0.1
12,ACGCCGTG,0.0103
13,ATTCTCAC,0.0808
14,CTAGAGCA,-0.133
15,ATCTACTC,0.0132
16,AGAGACGC,0.0313
17,CGGTTGAA,0.304
18,CTATCGCA,-0.167
19,GCCTTGTA,-0.0102
20,CGTAGGTA,0.00445
21,CCCAATCA,-0.119
22,ATGTGACA,0.033
23,ACGACTGC,-0.188
24,AAACTCAC,0.0799
25,ATAGATTG,0.0162

row,Sequence,PBM E-score
1,CGCCAAAG,-0.206
2,GAGCCACA,-0.166
3,CTGTGCTA,-0.119
4,TCGCGCGA,0.106
5,AGAACTAG,-0.0106
6,ATTGATCC,0.206
7,TAACGTTA,0.117
8,CGAATACC,-0.0246
9,AGATCCAA,0.0822
10,CAAGTGCG,-0.0694
11,ATACCGGA,0.237
12,CGCAGAAG,0.00665
13,AGATCTCC,-0.0782
14,AGGCCGGG,0.098
15,GGGTCGAA,-0.0462
16,CATCCCGG,0.212
17,ACCTGTAG,-0.203
18,GTGGCAGA,-0.338
19,ATGTGCCG,0.18
20,ACAAGAAG,0.048
21,ATAAGAGG,0.0338
22,CCGCTTAC,-0.046
23,GAACATGA,0.00797
24,CGAAATTA,0.224
25,TTGCCAAA,0.0432

row,Sequence,PBM E-score
1,TACAAACA,0.203
2,AACCCTGA,-0.0461
3,CATGCCTA,-0.261
4,CCCTCGCC,-0.207
5,GCAAGGGC,-0.274
6,ATCGATTG,0.156
7,AACGCCAG,0.0264
8,CCGGCACC,0.352
9,CACGCGCG,-0.106
10,CTTATGCC,0.0866
11,GCGTAGGA,-0.155
12,AGCCATCC,0.0367
13,CTGAACAC,0.149
14,AGCTGGGA,-0.166
15,CACAGCCA,-0.0852
16,AGGCCGTC,-0.0989
17,CGCCCAGC,-0.17
18,GAGTACCC,-0.283
19,CACGACCA,-0.127
20,CTACCTGC,0.0071
21,ATCCGAGA,0.252
22,AGGTATAG,-0.18
